Source: publication PMC9018043
Numbering of substitutions follows the chain as printed. Names may count otherwise. Results are given in words; binding and its absence hold for the method and conditions named. Binding seen in cells or lysates may run through a third protein. Some results given as binding are weak or reduced against the parent protein; the word gives no strength. Tags and fused reporters may be left off the sequences shown. Values belong to the binder of their own block, whether it stands above or below them.

Molecular target: T1, Flag-tagged α-tocopherol transfer protein (UniProt P49638)
T1 sequence: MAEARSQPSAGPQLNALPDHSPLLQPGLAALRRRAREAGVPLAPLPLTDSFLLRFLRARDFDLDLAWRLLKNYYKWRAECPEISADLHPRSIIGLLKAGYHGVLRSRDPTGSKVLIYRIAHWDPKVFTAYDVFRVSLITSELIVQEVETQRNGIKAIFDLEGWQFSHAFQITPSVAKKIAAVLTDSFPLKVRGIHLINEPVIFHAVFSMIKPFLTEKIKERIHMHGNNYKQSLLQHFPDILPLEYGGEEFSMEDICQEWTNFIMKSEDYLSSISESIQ
Test: co-IP; HEK293 cells cotransfected with Flag-tagged αTTP and Myc-tagged CLVS1 (wild-type or p.H310Y), harvested about 68 h after transfection; Flag immunoprecipitation kit (and a Myc-tag Co-IP kit), immunoblot; in the presence of excess α-tocopherol

- binding: binds
B1: Myc-tagged wild-type clavesin-1 (protein, UniProt Q8IUQ0-1 1-354)
chain: MGPVSLLPKYQKLNTWNGDLAKMTHLQAGLSPETIEKARLELNENPDVLHQDIQQVRDMIITRPDIGFLRTDDAFILRFLRARKFHQADAFRLLAQYFQYRQLNLDMFKNFKADDPGIKRALIDGFPGVLENRDHYGRKILLLFAANWDQSRNSFTDILRAILLSLEVLIEDPELQINGFILIIDWSNFSFKQASKLTPSILKLAIEGLQDSFPARFGGVHFVNQPWYIHALYTLIKPFLKDKTRKRIFLHGNNLNSLHQLIHPEFLPSEFGGTLPPYDMGTWARTLLGPDYSDENDYTHTSYNAMHVKHTSSNLERECSPKLMKRSQSVVEAGTLKHEEKGENENTQPLLALD

- binding: binds
B2: Myc-tagged clavesin-1 p.H310Y (protein, UniProt Q8IUQ0-1 1-354)
chain: B1 chain with H310Y
